Reference: the M2OR odorant receptor database
Positions count from the first letter of the chain named. The list shows a part of the results, in another mix than the full data. Calls are pooled over several reports, among them a noisy single-well screen. The list shows a part of the results.

Chains of the proteins cited; added tags and fusions are not shown. A line that says so, or that is headed by a name, gives the form on record, which may keep a tag or linker.
O52E2, as listed by the source: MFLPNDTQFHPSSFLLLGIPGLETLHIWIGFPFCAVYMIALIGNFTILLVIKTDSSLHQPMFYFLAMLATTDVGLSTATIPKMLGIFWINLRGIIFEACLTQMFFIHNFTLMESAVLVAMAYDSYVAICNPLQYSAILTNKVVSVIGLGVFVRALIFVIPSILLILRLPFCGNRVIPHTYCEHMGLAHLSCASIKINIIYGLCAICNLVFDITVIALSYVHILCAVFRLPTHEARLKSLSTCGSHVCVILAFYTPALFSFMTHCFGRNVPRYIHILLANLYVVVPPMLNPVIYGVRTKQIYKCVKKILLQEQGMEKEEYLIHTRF
O52E4, as listed by the source: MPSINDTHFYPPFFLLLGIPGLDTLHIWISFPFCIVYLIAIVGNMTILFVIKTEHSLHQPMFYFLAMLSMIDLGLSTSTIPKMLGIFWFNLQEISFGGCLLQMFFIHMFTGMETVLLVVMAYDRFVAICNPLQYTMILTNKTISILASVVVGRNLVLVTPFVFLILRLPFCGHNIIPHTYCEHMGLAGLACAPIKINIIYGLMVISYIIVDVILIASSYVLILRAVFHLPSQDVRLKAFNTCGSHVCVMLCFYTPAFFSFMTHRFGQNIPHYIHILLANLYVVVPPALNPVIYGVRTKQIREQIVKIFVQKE
O52E8, as listed by the source: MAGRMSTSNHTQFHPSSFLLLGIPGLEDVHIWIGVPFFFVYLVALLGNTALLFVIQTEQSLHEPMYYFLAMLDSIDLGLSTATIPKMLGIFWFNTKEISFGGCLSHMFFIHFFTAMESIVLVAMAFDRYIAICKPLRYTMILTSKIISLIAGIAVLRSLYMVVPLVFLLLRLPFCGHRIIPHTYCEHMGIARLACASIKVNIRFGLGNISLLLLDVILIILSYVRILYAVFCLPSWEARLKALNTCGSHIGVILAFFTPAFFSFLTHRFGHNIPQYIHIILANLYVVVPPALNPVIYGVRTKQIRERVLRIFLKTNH
O52E5, as listed by the source: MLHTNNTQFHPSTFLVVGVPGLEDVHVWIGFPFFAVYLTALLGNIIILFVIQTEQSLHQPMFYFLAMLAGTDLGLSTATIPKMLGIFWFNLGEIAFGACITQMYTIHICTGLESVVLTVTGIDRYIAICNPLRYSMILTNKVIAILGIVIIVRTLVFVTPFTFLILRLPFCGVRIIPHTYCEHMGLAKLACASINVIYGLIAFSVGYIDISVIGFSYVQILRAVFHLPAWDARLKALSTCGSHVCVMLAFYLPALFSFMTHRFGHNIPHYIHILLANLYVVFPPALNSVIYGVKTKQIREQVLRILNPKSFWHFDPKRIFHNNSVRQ
O51V1, as listed by the source: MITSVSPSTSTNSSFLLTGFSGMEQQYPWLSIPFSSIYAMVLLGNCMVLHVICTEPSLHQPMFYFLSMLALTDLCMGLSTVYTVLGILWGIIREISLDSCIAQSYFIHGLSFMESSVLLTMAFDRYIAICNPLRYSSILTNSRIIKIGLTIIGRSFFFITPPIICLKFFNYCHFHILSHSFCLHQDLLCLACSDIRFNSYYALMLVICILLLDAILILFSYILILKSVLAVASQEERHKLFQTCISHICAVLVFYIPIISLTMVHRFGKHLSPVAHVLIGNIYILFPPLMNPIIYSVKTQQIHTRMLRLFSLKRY
O52E1, as listed by the source: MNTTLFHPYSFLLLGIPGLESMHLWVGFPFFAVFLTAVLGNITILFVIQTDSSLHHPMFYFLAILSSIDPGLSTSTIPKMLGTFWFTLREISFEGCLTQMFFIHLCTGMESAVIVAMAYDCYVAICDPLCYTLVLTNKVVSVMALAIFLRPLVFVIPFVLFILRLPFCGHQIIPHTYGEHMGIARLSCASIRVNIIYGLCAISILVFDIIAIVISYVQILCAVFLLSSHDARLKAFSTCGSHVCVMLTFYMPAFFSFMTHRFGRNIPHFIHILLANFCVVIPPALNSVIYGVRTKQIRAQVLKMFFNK

Legend:
Details in all cases: stereoisomer not certain
[1] = tested on: T1, O51V1
T1 sequence (whole entry): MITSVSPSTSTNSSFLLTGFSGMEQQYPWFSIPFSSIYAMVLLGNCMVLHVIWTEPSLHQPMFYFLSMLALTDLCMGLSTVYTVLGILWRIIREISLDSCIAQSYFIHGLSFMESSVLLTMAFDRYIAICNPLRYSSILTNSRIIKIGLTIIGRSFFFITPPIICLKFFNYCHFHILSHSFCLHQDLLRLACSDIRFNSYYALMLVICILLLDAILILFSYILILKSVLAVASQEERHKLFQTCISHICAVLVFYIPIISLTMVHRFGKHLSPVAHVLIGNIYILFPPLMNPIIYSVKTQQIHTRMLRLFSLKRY
Procedure, shortened: (§1)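 Each entry records the cell line, G-protein, co-transfected protein and tags used. Methods varied with the source, often transient luciferase assays in mammalian cell lines. A receptor–molecule pair is called responsive (active) if the original authors judged its signal statistically different from baseline and non-responsive (inactive) otherwise.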

[2] = tested on: T2, O51V1; remark: listed apart in the source
T2 sequence (whole entry): T1 sequence (whole entry) with F30L, W53C, R90G, R189C
Procedure, shortened: as §1

[3] = tested on: T3, O52A1
T3 sequence (whole entry): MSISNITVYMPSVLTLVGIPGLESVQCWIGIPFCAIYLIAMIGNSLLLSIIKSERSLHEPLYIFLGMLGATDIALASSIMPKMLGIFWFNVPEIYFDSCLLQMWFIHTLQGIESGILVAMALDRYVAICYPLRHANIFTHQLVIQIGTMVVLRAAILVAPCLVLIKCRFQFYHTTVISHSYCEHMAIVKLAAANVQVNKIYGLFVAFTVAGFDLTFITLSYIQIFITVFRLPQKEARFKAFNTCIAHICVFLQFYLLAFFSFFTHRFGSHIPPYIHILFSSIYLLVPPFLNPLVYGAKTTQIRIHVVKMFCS
Procedure, shortened: as §1

[4] = tested on: T4, O52B2
T4 sequence (whole entry): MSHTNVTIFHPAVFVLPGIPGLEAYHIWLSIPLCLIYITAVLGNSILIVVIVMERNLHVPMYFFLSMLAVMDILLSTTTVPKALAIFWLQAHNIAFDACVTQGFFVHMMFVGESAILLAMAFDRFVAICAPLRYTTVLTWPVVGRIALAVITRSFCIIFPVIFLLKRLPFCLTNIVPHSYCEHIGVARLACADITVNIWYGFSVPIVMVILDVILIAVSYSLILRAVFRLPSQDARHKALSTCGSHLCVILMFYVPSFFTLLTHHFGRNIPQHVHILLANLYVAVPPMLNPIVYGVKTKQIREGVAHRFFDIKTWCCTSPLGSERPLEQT
Procedure, shortened: as §1

[5] = tested on: T5, O52B6
T5 sequence (whole entry): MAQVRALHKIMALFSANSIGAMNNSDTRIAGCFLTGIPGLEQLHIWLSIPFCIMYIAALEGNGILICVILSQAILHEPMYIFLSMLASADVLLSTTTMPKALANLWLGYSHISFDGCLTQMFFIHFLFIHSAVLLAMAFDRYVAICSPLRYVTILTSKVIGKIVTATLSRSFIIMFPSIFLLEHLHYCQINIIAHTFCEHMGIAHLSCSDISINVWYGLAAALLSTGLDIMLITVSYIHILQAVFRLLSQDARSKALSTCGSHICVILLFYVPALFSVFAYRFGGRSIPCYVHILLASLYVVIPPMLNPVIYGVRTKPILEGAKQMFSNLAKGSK
Procedure, shortened: as §1

[6] = tested on: O52E1
Procedure, shortened: as §1

[7] = tested on: O52E2
Procedure, shortened: as §1

[8] = tested on: O52E4
Procedure, shortened: as §1

[9] = tested on: O52E5
Procedure, shortened: as §1

[10] = tested on: O52E8
Procedure, shortened: as §1

[11] = tested on: T6, O52I2
T6 sequence (whole entry): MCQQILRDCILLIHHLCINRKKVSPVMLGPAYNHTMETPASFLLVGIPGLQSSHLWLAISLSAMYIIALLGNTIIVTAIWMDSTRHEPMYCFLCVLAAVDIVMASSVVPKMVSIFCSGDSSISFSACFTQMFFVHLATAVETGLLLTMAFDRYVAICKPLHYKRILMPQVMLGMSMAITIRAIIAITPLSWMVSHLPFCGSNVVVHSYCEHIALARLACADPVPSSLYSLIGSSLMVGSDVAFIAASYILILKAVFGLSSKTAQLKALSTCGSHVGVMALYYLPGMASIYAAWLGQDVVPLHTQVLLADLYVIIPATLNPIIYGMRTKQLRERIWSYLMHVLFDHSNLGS
Procedure, shortened: as §1

[12] = tested on: T7, O52I2; remark: listed apart in the source
T7 sequence (whole entry): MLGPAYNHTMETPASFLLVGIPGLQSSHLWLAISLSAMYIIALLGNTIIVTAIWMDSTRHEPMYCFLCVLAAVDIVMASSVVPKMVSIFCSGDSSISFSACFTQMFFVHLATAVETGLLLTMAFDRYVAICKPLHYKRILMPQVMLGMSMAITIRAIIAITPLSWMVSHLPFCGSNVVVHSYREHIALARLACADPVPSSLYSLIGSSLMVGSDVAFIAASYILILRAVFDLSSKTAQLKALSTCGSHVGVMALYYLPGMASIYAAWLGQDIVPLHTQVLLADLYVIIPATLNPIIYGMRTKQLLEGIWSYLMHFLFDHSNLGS
Procedure, shortened: as §1

[13] = tested on: T8, O52J3
T8 sequence (whole entry): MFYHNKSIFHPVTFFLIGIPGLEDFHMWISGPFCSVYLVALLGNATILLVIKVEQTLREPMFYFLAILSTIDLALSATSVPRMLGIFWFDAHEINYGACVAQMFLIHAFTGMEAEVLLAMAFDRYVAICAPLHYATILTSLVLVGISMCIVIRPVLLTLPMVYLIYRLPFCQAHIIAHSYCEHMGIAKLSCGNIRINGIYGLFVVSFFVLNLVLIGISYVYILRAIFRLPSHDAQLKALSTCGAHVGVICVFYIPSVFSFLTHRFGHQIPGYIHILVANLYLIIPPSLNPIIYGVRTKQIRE
Procedure, shortened: as §1

[14] = tested on: T9, O52L1
T9 sequence (whole entry): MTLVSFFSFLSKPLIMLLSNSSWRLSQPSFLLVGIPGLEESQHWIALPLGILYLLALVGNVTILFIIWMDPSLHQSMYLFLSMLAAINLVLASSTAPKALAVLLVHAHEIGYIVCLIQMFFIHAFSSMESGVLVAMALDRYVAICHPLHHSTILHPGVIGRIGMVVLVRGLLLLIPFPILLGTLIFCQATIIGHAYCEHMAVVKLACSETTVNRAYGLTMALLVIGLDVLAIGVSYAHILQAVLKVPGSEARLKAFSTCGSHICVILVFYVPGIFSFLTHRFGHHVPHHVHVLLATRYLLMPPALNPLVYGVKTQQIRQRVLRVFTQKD
Procedure, shortened: as §1

[15] = tested on: T10, O52L2
T10 sequence (whole entry): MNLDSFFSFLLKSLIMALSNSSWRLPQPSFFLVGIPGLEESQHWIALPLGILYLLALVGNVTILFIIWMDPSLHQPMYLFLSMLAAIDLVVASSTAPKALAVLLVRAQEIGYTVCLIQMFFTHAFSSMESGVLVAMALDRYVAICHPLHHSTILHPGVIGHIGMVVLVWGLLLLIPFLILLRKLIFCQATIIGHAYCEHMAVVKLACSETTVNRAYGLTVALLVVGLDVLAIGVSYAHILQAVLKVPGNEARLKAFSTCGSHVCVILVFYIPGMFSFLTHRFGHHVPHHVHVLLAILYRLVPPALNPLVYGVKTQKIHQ
Procedure, shortened: as §1

[16] = tested on: T11, O52M1
T11 sequence (whole entry): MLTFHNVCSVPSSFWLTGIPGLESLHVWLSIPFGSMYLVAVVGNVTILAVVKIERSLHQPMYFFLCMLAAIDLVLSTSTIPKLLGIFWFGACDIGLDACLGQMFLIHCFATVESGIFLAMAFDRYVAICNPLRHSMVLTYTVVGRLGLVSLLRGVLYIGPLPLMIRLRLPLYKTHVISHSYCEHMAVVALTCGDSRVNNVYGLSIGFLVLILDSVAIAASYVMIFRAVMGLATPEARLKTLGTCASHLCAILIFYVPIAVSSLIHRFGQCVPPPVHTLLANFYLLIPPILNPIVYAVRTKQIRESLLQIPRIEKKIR
Procedure, shortened: as §1

[17] = tested on: T12, O52N1
T12 sequence (whole entry): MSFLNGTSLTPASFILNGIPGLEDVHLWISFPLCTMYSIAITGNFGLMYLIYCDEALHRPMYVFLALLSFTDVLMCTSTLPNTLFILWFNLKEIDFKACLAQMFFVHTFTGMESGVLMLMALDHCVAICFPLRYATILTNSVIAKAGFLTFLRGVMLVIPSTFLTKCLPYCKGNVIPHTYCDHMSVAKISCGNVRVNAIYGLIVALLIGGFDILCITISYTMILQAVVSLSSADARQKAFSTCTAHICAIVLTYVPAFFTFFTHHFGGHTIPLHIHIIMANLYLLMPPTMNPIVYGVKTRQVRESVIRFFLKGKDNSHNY
Procedure, shortened: as §1

[18] = tested on: T13, O52N2
T13 sequence (whole entry): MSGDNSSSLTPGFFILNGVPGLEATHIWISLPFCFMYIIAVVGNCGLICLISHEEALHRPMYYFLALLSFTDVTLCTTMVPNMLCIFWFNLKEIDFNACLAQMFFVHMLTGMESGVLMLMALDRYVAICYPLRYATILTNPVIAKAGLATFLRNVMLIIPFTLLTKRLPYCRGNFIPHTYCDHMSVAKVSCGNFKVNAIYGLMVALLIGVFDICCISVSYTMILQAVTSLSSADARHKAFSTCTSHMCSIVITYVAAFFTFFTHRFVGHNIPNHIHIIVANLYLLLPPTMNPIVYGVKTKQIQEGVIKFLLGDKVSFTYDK
Procedure, shortened: as §1

[19] = tested on: T14, O52N4
T14 sequence (whole entry): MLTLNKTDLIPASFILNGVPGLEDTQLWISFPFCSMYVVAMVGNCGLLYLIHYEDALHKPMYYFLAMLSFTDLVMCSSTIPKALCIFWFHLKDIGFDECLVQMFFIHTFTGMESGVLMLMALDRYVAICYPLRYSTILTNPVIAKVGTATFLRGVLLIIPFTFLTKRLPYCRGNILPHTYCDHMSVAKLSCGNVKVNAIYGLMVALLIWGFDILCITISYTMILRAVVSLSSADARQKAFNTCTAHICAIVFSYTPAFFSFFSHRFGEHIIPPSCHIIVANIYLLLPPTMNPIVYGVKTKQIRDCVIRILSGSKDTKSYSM
Procedure, shortened: as §1

[20] = tested on: T15, O52P1
T15 sequence (whole entry): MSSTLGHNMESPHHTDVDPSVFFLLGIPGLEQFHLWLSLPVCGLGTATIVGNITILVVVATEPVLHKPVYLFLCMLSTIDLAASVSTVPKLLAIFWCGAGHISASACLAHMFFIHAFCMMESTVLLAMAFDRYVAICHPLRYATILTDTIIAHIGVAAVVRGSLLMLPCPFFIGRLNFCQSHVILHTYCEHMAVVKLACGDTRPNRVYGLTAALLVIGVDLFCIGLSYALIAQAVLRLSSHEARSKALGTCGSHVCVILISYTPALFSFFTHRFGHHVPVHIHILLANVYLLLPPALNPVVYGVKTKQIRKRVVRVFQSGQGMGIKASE
Procedure, shortened: as §1

Measured: odorant receptor agonist call

CCCCOC(C)=O
inactive: all assays above

CCC(C)=O
inactive: all assays above

CS
inactive: all assays above
